{"source": "PubChem BioAssay AID652272 (Drosophila RNAi Screening Center, 2013)", "purpose": "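Genome-wide knock-down search for components of Hedgehog signalling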 (primary screen)", "cells": "Drosophila clone 8 (Cl8) cells", "reagents": "long dsRNA against Drosophila genes", "detection": "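Plate reader light from a firefly reporter under a ptc promoter fragment that responds to Hedgehog, with Renilla light as transfection reference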", "reading the numbers": "firefly Hh reporter signal: higher = more ptc reporter light; Renilla reference signal: higher = more Renilla control light", "call rule": "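Called a hit if the two-replicate mean z-score lies below -2 or above +3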", "calls": "active = hit: reporter lowered or raised; inactive = not a hit", "note": "In all, the deposit lists about 21,000 reagents; below is an unselected part of those with a known target gene and a result. Of all reagents, 503 (2.4%) got an active call. 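Raw plate light values, not normalised; calls rest on replicate z-scores that were not deposited; hits include reporter decreases as well as increases.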 Entries without a mark were called inactive. A plus sign joins genes that one reagent is predicted to hit. The record does not give: the amount of reagent, the time to read-out."}
{"target": "CG7634 (GeneID 40394)", "DRSC id": "DRSC11843", "firefly Hh reporter signal, replicate 1": 74211, "firefly Hh reporter signal, replicate 2": 82376, "Renilla reference signal, replicate 1": 2595, "Renilla reference signal, replicate 2": 2344}
{"target": "mRpL17 (GeneID 38046)", "DRSC id": "DRSC08350", "firefly Hh reporter signal, replicate 1": 1.33e5, "firefly Hh reporter signal, replicate 2": 44859, "Renilla reference signal, replicate 1": 4181, "Renilla reference signal, replicate 2": 2929}
{"target": "MESK2 + CG10494", "DRSC id": "DRSC04259", "firefly Hh reporter signal, replicate 1": 64676, "firefly Hh reporter signal, replicate 2": 44249, "Renilla reference signal, replicate 1": 1766, "Renilla reference signal, replicate 2": 4482}
{"target": "CG42615 (GeneID 8674036)", "DRSC id": "DRSC05121", "firefly Hh reporter signal, replicate 1": 1.48e5, "firefly Hh reporter signal, replicate 2": 2.84e5, "Renilla reference signal, replicate 1": 3655, "Renilla reference signal, replicate 2": 11916}
{"target": "Rab5 (GeneID 33418)", "DRSC id": "DRSC00777", "firefly Hh reporter signal, replicate 1": 1.13e5, "firefly Hh reporter signal, replicate 2": 71905, "Renilla reference signal, replicate 1": 3120, "Renilla reference signal, replicate 2": 2290}
{"target": "Toll-4 (GeneID 34235)", "DRSC id": "DRSC03458", "firefly Hh reporter signal, replicate 1": 65352, "firefly Hh reporter signal, replicate 2": 59619, "Renilla reference signal, replicate 1": 1883, "Renilla reference signal, replicate 2": 5017}
{"target": "SmydA-1 (GeneID 36581)", "DRSC id": "DRSC07200", "firefly Hh reporter signal, replicate 1": 1.80e5, "firefly Hh reporter signal, replicate 2": 1.12e5, "Renilla reference signal, replicate 1": 6787, "Renilla reference signal, replicate 2": 4528}
{"target": "CG11825 (GeneID 36099)", "DRSC id": "DRSC06090", "firefly Hh reporter signal, replicate 1": 1.11e5, "firefly Hh reporter signal, replicate 2": 62048, "Renilla reference signal, replicate 1": 2968, "Renilla reference signal, replicate 2": 5302}
{"target": "Parp1 (GeneID 3355109)", "DRSC id": "DRSC07725", "firefly Hh reporter signal, replicate 1": 1.18e5, "firefly Hh reporter signal, replicate 2": 2.87e5, "Renilla reference signal, replicate 1": 3005, "Renilla reference signal, replicate 2": 10522}
{"target": "Parp1 (GeneID 3355109)", "DRSC id": "DRSC07778", "firefly Hh reporter signal, replicate 1": 79595, "firefly Hh reporter signal, replicate 2": 46677, "Renilla reference signal, replicate 1": 3097, "Renilla reference signal, replicate 2": 3876}
{"target": "Parp1 (GeneID 3355109)", "DRSC id": "DRSC07780", "firefly Hh reporter signal, replicate 1": 55373, "firefly Hh reporter signal, replicate 2": 50384, "Renilla reference signal, replicate 1": 2067, "Renilla reference signal, replicate 2": 4220}
{"target": "CG5024 (GeneID 43117)", "DRSC id": "DRSC15698", "firefly Hh reporter signal, replicate 1": 4.63e5, "firefly Hh reporter signal, replicate 2": 72853, "Renilla reference signal, replicate 1": 25187, "Renilla reference signal, replicate 2": 2236}
{"target": "Daao1 (GeneID 36128)", "DRSC id": "DRSC06131", "firefly Hh reporter signal, replicate 1": 90389, "firefly Hh reporter signal, replicate 2": 46688, "Renilla reference signal, replicate 1": 2200, "Renilla reference signal, replicate 2": 4204}
{"target": "CG10970 (GeneID 31830)", "DRSC id": "DRSC17772", "firefly Hh reporter signal, replicate 1": 98022, "firefly Hh reporter signal, replicate 2": 86778, "Renilla reference signal, replicate 1": 2464, "Renilla reference signal, replicate 2": 2048}
{"target": "CG32773 (retired record) (GeneID 318204)", "DRSC id": "DRSC17330", "firefly Hh reporter signal, replicate 1": 4.67e5, "firefly Hh reporter signal, replicate 2": 2.46e5, "Renilla reference signal, replicate 1": 22717, "Renilla reference signal, replicate 2": 4544}
{"target": "CG4577 (GeneID 33291)", "DRSC id": "DRSC00658", "firefly Hh reporter signal, replicate 1": 1.23e5, "firefly Hh reporter signal, replicate 2": 1.06e5, "Renilla reference signal, replicate 1": 2832, "Renilla reference signal, replicate 2": 2723}
{"target": "CG11307 (GeneID 40400)", "DRSC id": "DRSC11648", "firefly Hh reporter signal, replicate 1": 1.54e5, "firefly Hh reporter signal, replicate 2": 1.66e5, "Renilla reference signal, replicate 1": 6212, "Renilla reference signal, replicate 2": 5798}
{"target": "Zdhhc8 (GeneID 31887)", "DRSC id": "DRSC18044", "firefly Hh reporter signal, replicate 1": 65796, "firefly Hh reporter signal, replicate 2": 91452, "Renilla reference signal, replicate 1": 2106, "Renilla reference signal, replicate 2": 4387}
{"target": "Zdhhc8 (GeneID 31887)", "DRSC id": "DRSC18122", "firefly Hh reporter signal, replicate 1": 92053, "firefly Hh reporter signal, replicate 2": 2.48e5, "Renilla reference signal, replicate 1": 2694, "Renilla reference signal, replicate 2": 9355}
{"target": "AGBE (GeneID 326264)", "DRSC id": "DRSC06861", "firefly Hh reporter signal, replicate 1": 1.27e5, "firefly Hh reporter signal, replicate 2": 36780, "Renilla reference signal, replicate 1": 4156, "Renilla reference signal, replicate 2": 1155}
{"target": "JMJD4 (GeneID 35089)", "DRSC id": "DRSC03025", "firefly Hh reporter signal, replicate 1": 1.29e5, "firefly Hh reporter signal, replicate 2": 1.05e5, "Renilla reference signal, replicate 1": 4571, "Renilla reference signal, replicate 2": 4151}
{"target": "eIF5B (GeneID 44261)", "DRSC id": "DRSC08429", "firefly Hh reporter signal, replicate 1": 65302, "firefly Hh reporter signal, replicate 2": 52305, "Renilla reference signal, replicate 1": 2596, "Renilla reference signal, replicate 2": 4145}
{"target": "eIF5B (GeneID 44261)", "DRSC id": "DRSC08710", "firefly Hh reporter signal, replicate 1": 40609, "firefly Hh reporter signal, replicate 2": 33587, "Renilla reference signal, replicate 1": 2569, "Renilla reference signal, replicate 2": 3034}
{"target": "Zif (GeneID 40795)", "DRSC id": "DRSC12514", "firefly Hh reporter signal, replicate 1": 99789, "firefly Hh reporter signal, replicate 2": 58904, "Renilla reference signal, replicate 1": 4595, "Renilla reference signal, replicate 2": 2752}
{"target": "Cdc16 (GeneID 42753)", "DRSC id": "DRSC16920", "firefly Hh reporter signal, replicate 1": 4.93e5, "firefly Hh reporter signal, replicate 2": 89914, "Renilla reference signal, replicate 1": 23612, "Renilla reference signal, replicate 2": 2800}
{"target": "hpo (GeneID 37247)", "DRSC id": "DRSC06065", "firefly Hh reporter signal, replicate 1": 93383, "firefly Hh reporter signal, replicate 2": 84512, "Renilla reference signal, replicate 1": 4251, "Renilla reference signal, replicate 2": 3780}
{"target": "CG9067 (GeneID 36197)", "DRSC id": "DRSC07328", "firefly Hh reporter signal, replicate 1": 1.51e5, "firefly Hh reporter signal, replicate 2": 65920, "Renilla reference signal, replicate 1": 3897, "Renilla reference signal, replicate 2": 5604}

Not a retest: an excerpt of the list.
{"target": "eIF5B (GeneID 44261)", "DRSC id": "DRSC08429", "firefly Hh reporter signal, replicate 1": 65302, "firefly Hh reporter signal, replicate 2": 52305, "Renilla reference signal, replicate 1": 2596, "Renilla reference signal, replicate 2": 4145}
{"target": "eIF5B (GeneID 44261)", "DRSC id": "DRSC08710", "firefly Hh reporter signal, replicate 1": 40609, "firefly Hh reporter signal, replicate 2": 33587, "Renilla reference signal, replicate 1": 2569, "Renilla reference signal, replicate 2": 3034}
{"target": "Zif (GeneID 40795)", "DRSC id": "DRSC12514", "firefly Hh reporter signal, replicate 1": 99789, "firefly Hh reporter signal, replicate 2": 58904, "Renilla reference signal, replicate 1": 4595, "Renilla reference signal, replicate 2": 2752}
{"target": "Cdc16 (GeneID 42753)", "DRSC id": "DRSC16920", "firefly Hh reporter signal, replicate 1": 4.93e5, "firefly Hh reporter signal, replicate 2": 89914, "Renilla reference signal, replicate 1": 23612, "Renilla reference signal, replicate 2": 2800}
